PMC3646813
No constants are given. Whether binding was seen depends on the method and setting. Some entries that bind do so weakly or less than the wild type. Blank lines part the entries; values can stand above or below the substance they belong to.

Protein sequences, listed by entry. Tags and fused reporters are not part of them. Lines headed by an entry give the natural chain unless they say otherwise; changes in a name come on top.
UniProt P18708: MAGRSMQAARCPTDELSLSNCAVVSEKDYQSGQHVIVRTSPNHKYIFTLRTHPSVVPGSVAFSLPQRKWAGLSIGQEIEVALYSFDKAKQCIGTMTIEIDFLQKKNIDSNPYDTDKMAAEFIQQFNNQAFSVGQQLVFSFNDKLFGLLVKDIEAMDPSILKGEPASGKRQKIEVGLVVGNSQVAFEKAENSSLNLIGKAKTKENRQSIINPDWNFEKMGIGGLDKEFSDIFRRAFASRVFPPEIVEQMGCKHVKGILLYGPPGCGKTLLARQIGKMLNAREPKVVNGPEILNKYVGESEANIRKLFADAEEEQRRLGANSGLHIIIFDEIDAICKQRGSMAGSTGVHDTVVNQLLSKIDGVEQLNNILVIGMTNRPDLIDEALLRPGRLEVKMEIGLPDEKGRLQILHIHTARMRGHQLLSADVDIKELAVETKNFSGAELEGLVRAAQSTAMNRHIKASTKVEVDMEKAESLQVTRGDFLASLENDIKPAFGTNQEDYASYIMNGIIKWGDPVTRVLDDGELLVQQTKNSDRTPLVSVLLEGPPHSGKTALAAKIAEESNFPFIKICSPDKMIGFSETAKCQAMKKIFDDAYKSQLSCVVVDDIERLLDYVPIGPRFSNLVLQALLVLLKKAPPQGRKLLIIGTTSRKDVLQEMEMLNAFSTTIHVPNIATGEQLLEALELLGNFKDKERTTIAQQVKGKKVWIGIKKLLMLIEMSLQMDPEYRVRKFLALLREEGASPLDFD

Key:
Assay in all cases: SEC; Superose-6 column, buffer containing ADP-AlFx; oligomeric state of purified NSF; both purified
[1] = target: NSF K217A (UniProt P18708)
[2] = target: NSF E203A (UniProt P18708)
[3] = target: NSF D212A (UniProt P18708)
[4] = target: NSF W213A (UniProt P18708)
[5] = target: NSF G221PG222P (UniProt P18708)
[6] = target: NSF M218A (UniProt P18708)
[7] = target: NSF E216A (UniProt P18708)
[8] = target: NSF G219A (UniProt P18708)
[9] = target: NSF I208A (UniProt P18708)
[10] = target: NSF P211A (UniProt P18708)
[11] = target: NSF G221AG222A (UniProt P18708)
[12] = target: NSF N210A (UniProt P18708)
[13] = target: NSF Q206A (UniProt P18708)
[14] = target: NSF N204A (UniProt P18708)
[15] = target: NSF I220A (UniProt P18708)
[16] = target: NSF I209A (UniProt P18708)
[17] = target: NSF N214A (UniProt P18708)
[18] = target: NSF F215A (UniProt P18708)
[19] = target: NSF S207A (UniProt P18708)

- binding [1]: binds
Substance: NSF K217A (from UniProt P18708 1-744) (enzyme)

- binding [2]: binds
Substance: NSF E203A (from UniProt P18708 1-744) (enzyme)

- binding [3]: binds
Substance: NSF D212A (from UniProt P18708 1-744) (enzyme)

- binding [4]: binds
Substance: NSF W213A (from UniProt P18708 1-744) (enzyme)

- binding [5]: binds
Substance: NSF G221PG222P (from UniProt P18708 1-744) (enzyme)

- binding [6]: binds
Substance: NSF M218A (from UniProt P18708 1-744) (enzyme)

- binding [7]: binds
Substance: NSF E216A (from UniProt P18708 1-744) (enzyme)

- binding [8]: binds
Substance: NSF G219A (from UniProt P18708 1-744) (enzyme)

- binding [9]: binds
Substance: NSF I208A (from UniProt P18708 1-744) (enzyme)

- binding [10]: binds
Substance: NSF P211A (from UniProt P18708 1-744) (enzyme)

- binding [11]: binds
Substance: NSF G221AG222A (from UniProt P18708 1-744) (enzyme)

- binding [12]: binds
Substance: NSF N210A (from UniProt P18708 1-744) (enzyme)

- binding [13]: binds
Substance: NSF Q206A (from UniProt P18708 1-744) (enzyme)

- binding [14]: binds
Substance: NSF N204A (from UniProt P18708 1-744) (enzyme)

- binding [15]: binds
Substance: NSF I220A (from UniProt P18708 1-744) (enzyme)

- binding [16]: binds
Substance: NSF I209A (from UniProt P18708 1-744) (enzyme)

- binding [17]: binds
Substance: NSF N214A (from UniProt P18708 1-744) (enzyme)

- binding [18]: binds
Substance: NSF F215A (from UniProt P18708 1-744) (enzyme)

- binding [19]: binds
Substance: NSF S207A (from UniProt P18708 1-744) (enzyme)
